From PubChem BioAssay AID488840 (Broad Institute, 2010)
About 45 (3%) of roughly 1,400 compounds were called active.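 Rule for the calls: active = half-maximal dose of signal decrease from fit no higher than ten times the top valid tested dose; inconclusive = fit invalid, or curve flat with 30 to 70% inhibition; inactive = the rest.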 The list shows a part of the results. Entries with a potency or affinity are not part of this list.

Amino acid sequences for entries named in this document (tags omitted). A change or cut given only in a name is not applied to a line headed by its entry.
UniProt O75164: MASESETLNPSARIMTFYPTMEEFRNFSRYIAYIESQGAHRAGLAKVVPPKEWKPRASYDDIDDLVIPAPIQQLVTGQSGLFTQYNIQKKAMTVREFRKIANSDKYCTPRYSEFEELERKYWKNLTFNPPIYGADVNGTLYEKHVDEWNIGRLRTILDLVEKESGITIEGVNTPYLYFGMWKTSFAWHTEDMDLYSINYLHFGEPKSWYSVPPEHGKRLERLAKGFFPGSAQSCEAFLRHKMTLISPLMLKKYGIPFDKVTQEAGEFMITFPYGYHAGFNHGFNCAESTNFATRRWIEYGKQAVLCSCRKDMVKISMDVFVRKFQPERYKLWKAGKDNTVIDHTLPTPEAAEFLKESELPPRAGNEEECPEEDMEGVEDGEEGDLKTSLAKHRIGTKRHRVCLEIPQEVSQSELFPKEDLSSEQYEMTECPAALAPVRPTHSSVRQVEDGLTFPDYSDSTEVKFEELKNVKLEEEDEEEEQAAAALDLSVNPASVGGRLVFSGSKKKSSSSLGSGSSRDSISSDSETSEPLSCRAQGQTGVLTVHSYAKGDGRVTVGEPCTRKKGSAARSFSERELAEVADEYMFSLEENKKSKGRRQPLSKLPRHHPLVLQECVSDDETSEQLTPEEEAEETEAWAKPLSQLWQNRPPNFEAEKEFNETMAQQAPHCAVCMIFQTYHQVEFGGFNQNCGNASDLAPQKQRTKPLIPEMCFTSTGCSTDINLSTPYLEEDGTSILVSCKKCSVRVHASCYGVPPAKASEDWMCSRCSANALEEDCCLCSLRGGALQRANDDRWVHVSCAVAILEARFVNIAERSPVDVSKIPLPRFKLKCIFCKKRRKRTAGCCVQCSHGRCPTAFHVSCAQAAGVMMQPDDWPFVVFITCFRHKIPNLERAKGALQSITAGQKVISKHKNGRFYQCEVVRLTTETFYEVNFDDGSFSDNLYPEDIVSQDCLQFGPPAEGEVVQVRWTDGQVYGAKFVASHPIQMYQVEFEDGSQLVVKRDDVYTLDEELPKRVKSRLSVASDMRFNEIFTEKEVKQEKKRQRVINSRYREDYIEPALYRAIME

Molecular target: Lysine-specific demethylase 4A (Homo sapiens) (UniProt O75164)
Assay: inhibition of JMJD2A H3K9me3 demethylation – biochemical, DELFIA europium, cherry-picked samples, selectivity assay for GASC-1 inhibitor project, dose response (AID 488840);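 note: europium signal reports the dimethyl H3K9 product detected by antibody so inhibitors lower it; 0% = median of neutral control wells and -100% = median of positive control wells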
Conditions: GST-JMJD2A(1-420) H3K9me3 demethylation; at 6 µM (top of the series) unless noted

Activity change, negative = inhibition, inactive:
CS(=O)(=O)N(CC(=O)NCc1ccco1)c1ccccc1Cl 0.814%
Cc1c(C(=O)NCc2cccs2)oc2ccccc12 2.19%
CCn1c(=O)c(-c2nc3ccccc3[nH]2)c(O)c2ccccc21 -3.34%
N#CCN1CCC(c2cc(-c3ccco3)n[nH]2)CC1 -2.49%
COc1cc(/C=N/Nc2ccccc2)ccc1OC(=O)c1cccs1 -6.09%
Cc1nnc(N/N=C\c2ccc(-c3ccccc3[N+](=O)[O-])o2)n1N -12.8%
Cc1ccc(C)c(N(C(=O)c2csnn2)C(C(=O)NC2CCCC2)c2cccnc2)c1 (stereo unspecified) -2.27%
O=C(NCc1cccc(Cl)c1)c1cnn2c1NC(c1ccco1)CC2C(F)(F)F (stereo unspecified) -2.33%
COc1cccc(OC)c1C(=O)NC(=S)N1CCOCC1 1.69%
N#Cc1ccc(N=c2ssnc2Cl)cc1 6.6%
C[C@@H]1CN([C@@H](C)CO)C(=O)c2cc(NC(=O)CCN3CCOCC3)ccc2O[C@@H]1CN(C)C(=O)Nc1ccccc1 -0.696%
COc1ccccc1-c1nc(C#N)c(NCc2ccc(F)cc2)o1 5.13%
COc1cc2c(cc1CNC[C@H]1O[C@@H](n3cnc4c(N)ncnc43)[C@H](O)[C@@H]1O)OCO2 5.09%
O=C1c2ccc([N+](=O)[O-])cc2C(=O)N1Cc1cccnc1 7.62%
O=C(/C=C/c1ccc2c(c1)OCO2)NCCS(=O)(=O)N1CCN(c2ccc(F)cc2)CC1 1.96%
CCOC(=O)C1(C)NC(c2cccs2)C2C(=O)N(c3ccc(OC)cc3)C(=O)C21 (stereo unspecified) 2.68%
S=C(NCc1ccco1)Nc1cccc(Cl)c1 1.64%
N#Cc1nc(COc2ccccc2F)oc1NCCCn1ccnc1 -0.21%
O=C(NC1CCN(S(=O)(=O)c2ccc(F)cc2)CC1)c1ccc(F)cc1 -4.19%
CSC1=N/C(=C\C=C\c2cccs2)C(=O)S1 0.0904%
O=C(CC(=O)N/N=C/c1c(F)cccc1Cl)NCc1ccccc1 -4.77%
Cc1ccc(C(=O)CN2C(=O)C(=O)N(Cc3ccccc3)C2=O)cc1 2.2%
CC(=O)Nc1ccc(NC(=O)Cn2cnc3c(cnn3C(C)(C)C)c2=O)cc1 -13.6%
Cc1ccc(CONC(=O)c2cccc([N+](=O)[O-])c2)cc1 -0.947%
CC/C(=C/c1sc2ccc(C)cc2[n+]1CCCS(=O)(=O)[O-])SC 0.561%
COc1ccc(S(=O)(=O)Nc2ccc3c(c2)CC(=O)N([C@@H](C)CO)C[C@H](C)[C@@H](CN(C)S(=O)(=O)c2ccc(F)cc2)O3)cc1 -0.126%
CCNC(=O)c1ccc2c(c1)S(=O)(=O)c1ccccc1C2=O 0.302%
CC(C)NC(=O)N(C)C[C@H]1Oc2ccc(NC(=O)C3CC3)cc2C(=O)N([C@H](C)CO)C[C@@H]1C -5.78%
N=C1C(c2nc3ccccc3s2)=C(O)CN1Cc1ccccc1 6.89%
Cc1ccc(/C(N)=N/OC(=O)CCC2CCCCC2)cc1 0.447%
Nc1c(Cl)ncnc1NCc1cccnc1 -3.71%
COc1ccccc1CNC(=O)COc1ccc(S(=O)(=O)N2CCOCC2)cc1C -1.64%
CCN(CC)C(=O)[C@H]1CC(CC(=O)NCc2cccc(C(F)(F)F)c2)C(=O)N2CCc3c([nH]c4ccccc34)[C@]12C (stereo partly specified) -4.76%
CCn1c(O)c(N=NC2=NC(=O)CS2)c2ccccc21 2.94%
Cc1cc(NC(=O)Nc2c[nH]c(=O)[nH]c2=O)ccc1Br 8.1%
O=C(NCc1nnc(SCC(=O)N2CCCC2)o1)c1ccccc1F -1.83%
CCn1nc(C(=O)NNC(=O)COc2ccc(OC)cc2)c2ccccc2c1=O -3.84%
Cc1ccc(S(=O)(=O)N2CCOCC2)cc1NC(=O)COC(=O)c1cc(=O)[nH]c2ccccc12 6.67%
CCCCN1CC[C@H]2C=CC[C@@H](C(=O)Nc3ccc(OC)cc3)[C@H]2C1=O 4.58%
C#CCOCCOCCOCCNc1nc(N2CCN(C(=O)CCCCCCCCCCNC(=O)[C@H]([C@@H](C)CC)n3cc(CCCCN=C(N)N)nn3)CC2)nc(N2CCN(C(=O)CCCCCCCCCCNC(=O)[C@H](CCCCN)n3cc(C)nn3)CC2)n1 4.37%
COc1ccc(NC(=O)N(C)C[C@H]2Oc3ccc(NC(=O)CCN4CCOCC4)cc3C(=O)N([C@H](C)CO)C[C@@H]2C)cc1 -1.41%
C#CCNC(=O)C1=C[C@@H](c2ccc(C(F)(F)F)cc2)C[C@@H](OCCCCO)O1 -3.47%
CCOC(=O)c1ccc2c(c1)nc(COc1ccc3ccccc3c1)n2CC -3.54%
C[C@@H](NC(=O)Cn1cnc2c(OCc3ccccc3)ncnc21)c1cccc2ccccc12 -1.72%
Cc1ccc(-c2nnc(SC(C)C(=O)NCC3CCCO3)nc2-c2ccc(C)cc2)cc1 (stereo unspecified) -9.73%
O=C(NNC(=O)c1cccnc1Cl)c1ccc(F)cc1 -2.64%
Cc1c(C(=O)N2CCC3(CC2)CC(=O)c2ccccc2O3)cccc1[N+](=O)[O-] -1.01%
COCCCNC(=O)C1CCN(C(=O)Nc2ccc(Cl)cc2)CC1 3.89%
Cc1cc(SCC(=O)c2ccccc2)n2nc(C)nc2n1 4.99%
O=C(NCCNc1ccc([N+](=O)[O-])cc1C(F)(F)F)c1ccccc1 5.17%
O=C(Nc1c(F)cc(F)cc1Br)c1ccco1 -12.7%
Cc1c(NC(=O)C2Cc3ccccc3CN2C(=O)c2ccco2)c(=O)n(-c2ccccc2)n1C (stereo unspecified) -1.71%
CC(=O)c1cc2c(O)c(O)ccc2o1 6.75%
COc1ccc(S(=O)(=O)Nc2cccc3c2O[C@H](CN(C)Cc2ccc(C(=O)O)cc2)[C@@H](C)CN([C@H](C)CO)C3=O)cc1 -3.72%
Cc1cccc(NCc2ccc(O)c3ncccc23)c1 -3.9%
COc1cc([N+](=O)[O-])ccc1NC(=O)CSc1nccn1C -5.89%
CCCc1nn(C)c(C(=O)Nc2ccc(C)c(C)c2)c1Cl -3.92%
COc1ccc(/C=N/NS(=O)(=O)c2ccc(NC(C)=O)cc2)cc1 3.47%
O=C(O)Cc1ccc2oc(-c3cccnc3)nc2c1 1.66%
Cc1cccn2c(=O)c3cc(C(=O)NCCN4CCOCC4)c(=N)n(CCc4ccccc4)c3nc12 -0.474%
O=[N+]([O-])c1cc(-c2cnc3ccccc3n2)ccc1Oc1ccc(F)cc1 2.93%
Cc1cccc(C2=N/C(=C\c3cccnc3)C(=O)O2)c1 -0.971%
Cc1ccc(S(=O)(=O)NC(=O)NCc2ccc(Cl)cc2)cc1 -5.3%
COc1ccc(C(=O)N2CCCC(c3nc(-c4ccc(OC)c(OC)c4)no3)C2)c(OC)c1 (stereo unspecified) -2.52%
CN1CCC[C@H]1CCNC(=O)c1c(-c2ccsc2)sc2ccccc12 4.72%
Cc1cc2oc(=O)cc(CSc3nnc(-c4cccs4)o3)c2cc1C(C)C -1.67%
C[C@H](CO)N1C[C@H](C)[C@@H](CN(C)C(=O)Nc2ccc(C(F)(F)F)cc2)Oc2c(cccc2N(C)C)C1=O 4.24%
Cc1nnc(N=c2ssnc2Cl)o1 4%
Cc1onc(-c2c(F)cccc2Cl)c1C(=O)NC1CC1 0.723%
Cc1csc(NC(=O)CSc2nnc(-c3ccncc3)n2C)n1 0.336%
CCn1c(SCC(=O)NCC(=O)Nc2ccc(F)cc2)nnc1-c1ccncc1 0.15%
COC(=O)COc1ccc(Oc2cc(C)nc(SC)n2)nn1 -1.19%
Cc1nc2nc(C)c(CCC(=O)NCc3ccc4c(c3)OCO4)c(C)n2n1 -2.25%
COc1ccc(NC(=O)CNC(=O)c2nn(-c3ccc(OC)c(Cl)c3)c(=O)c3ccccc23)c(OC)c1 0.725%
COC(=O)c1ccc(CSc2nc3sc(C(=O)O)c(C)c3c(=O)[nH]2)cc1 1.96%
CC[C@]12c3[nH]c4ccccc4c3CCN1C(=O)C(CC(=O)NCCCOC)C[C@@H]2C(=O)N1CCN(C(=O)C2CC2)CC1 (stereo partly specified) -3.68%
O=C(CSc1nc2ccccc2c(=O)n1Cc1ccccc1)NCc1ccco1 1.53%
CCS(=O)(=O)N1CCN(c2ccc([N+](=O)[O-])c(N3CCOCC3)c2)CC1 2.06%
CC(OC(=O)c1cccnc1SCc1cc(=O)n2ccccc2n1)c1ccccn1 (stereo unspecified) 5.16%
CCOc1cc(/C=N/NC(=O)C(=O)N/N=C/c2ccc(O)c(OCC)c2)ccc1O 2.79%
CC(=O)C[C@H](O)CC(=O)[C@H]1OC(=O)[C@H](C)CCCCc2ccccc21 -0.83%
O=C(NS(=O)(=O)c1ccc2c(c1)OCCO2)c1ccccc1 -5.85%
O=c1cc(N/N=C/c2ccccc2)[nH]c(=O)[nH]1 -2.55%
Clc1ccccc1Cn1nnc2c(NCCN3CCOCC3)ncnc21 -12%
Cc1[nH]c2ccccc2c1-c1ccc(Cl)nn1 -0.212%
O=S(=O)(c1ccc2nc(Nc3ccccc3)ccc2c1)N1CCCCC1 14.2%

6 successive compounds from above:
Activity change, negative = inhibition, inactive:
O=C(/C=C/c1ccc2c(c1)OCO2)NCCS(=O)(=O)N1CCN(c2ccc(F)cc2)CC1 1.96%
CCOC(=O)C1(C)NC(c2cccs2)C2C(=O)N(c3ccc(OC)cc3)C(=O)C21 (stereo unspecified) 2.68%
S=C(NCc1ccco1)Nc1cccc(Cl)c1 1.64%
N#Cc1nc(COc2ccccc2F)oc1NCCCn1ccnc1 -0.21%
O=C(NC1CCN(S(=O)(=O)c2ccc(F)cc2)CC1)c1ccc(F)cc1 -4.19%
CSC1=N/C(=C\C=C\c2cccs2)C(=O)S1 0.0904%
